Binding data for 3 molecules are collected here from paper PMC5910400.

The target in experiment [1] is T1, P1156 (evasin from Ixodes ricinus), purified, C-terminal StrepII:His tag (Ixodes ricinus) (UniProt V5HBW0).
T1 sequence: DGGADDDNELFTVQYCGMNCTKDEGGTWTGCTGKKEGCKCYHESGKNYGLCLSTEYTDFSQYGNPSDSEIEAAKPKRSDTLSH
Nature of the experiment: BLI; cross-binding screen; His-tagged evasin immobilised on Ni-NTA biosensors (OctetRed); 300 nM chemokine; 30 °C; 10 mM Na2HPO4, 1.8 mM KH2PO4, 2.7 mM KCl, 500 mM NaCl, 0.1% BSA, 0.002% TWEEN-20, pH 7.4; single experiment; both purified.

For experiment [2], the target named is T2, P1243 (evasin from Amblyomma americanum), purified, C-terminal StrepII:8xHis tag (Amblyomma americanum).
T2 sequence: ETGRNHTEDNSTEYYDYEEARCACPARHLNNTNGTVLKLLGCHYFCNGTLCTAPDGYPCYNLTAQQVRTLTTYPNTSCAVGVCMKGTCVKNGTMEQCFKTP
Described as above.

No constants are given. Whether binding was seen depends on the method and setting. Some binding calls cover weakened binding; strength is not graded here. Where a sequence is shown, tags or fusion partners need not be part of it.

B1: CXCL14 (ligand, UniProt O95715 35-111)
chain: SKCKCSRKGPKIRYSDVKKLEMKPKYPHCEEKMVIITTKSVSRYRGQEHCLHPKLQSTKRFIKWYNAWNEKRRVYEE
For the molecule B1, in experiment [1], the binding result is “no binding (tested: 300 nM)”.

B2: CXCL13 (ligand, UniProt O43927 23-109)
chain: VLEVYYTSLRCRCVQESSVFIPRRFIDRIQILPRGNGCPRKEIIVWKKNKSIVCVDPQAEWIQRMMEVLRKRSSSTLPVPVFKRKIP
With B2, the binding result in experiment [2] and in experiment [1] was “no binding (tested: 300 nM)” throughout.

B3: XCL1 (ligand, UniProt P47992 22-114)
chain: VGSEVSDKRTCVSLTTQRLPVSRIKTYTITEGSLRAVIFITKRGLKVCADPQATWVRDVVRSMDRKSNTRNNMIQTKPTGTQQSTNTAVTLTG
Consider B3, for which the binding result is given as “binds weakly” in experiment [2] and “no binding (tested: 300 nM)” in experiment [1].
